Data reported in patent US20220330548A1, “Peptides with Phytosanitary Activities” (Universita' Degli Studi Di Padova, priority 2021, published 2022).
Some entries share one result that the patent states for a list of compounds.

How the values were obtained:
[1] = system: Pyricularia oryzae; format: cell-based, Pyricularia oryzae (strain IT10)
[2] = system: Xanthomonas campestris pv. campestris; format: cell-based

Substance	decrease of growth of Pyricularia oryzae compared to the untreated control [1]	decrease of growth of Xanthomonas campestris pv. campestris compared to the untreated control [2]
1-octanoyl-Aib-Gly-Leu-Aib-Gly-Gly-Leu-Aib-Lys(HCl)-Ile-Lol [SEQ. ID. No. 5]	at least 95%	at least 95%
1-octanoyl-Aib-Lys(HCl)-Leu-Aib-Lys(HCl)-Gly-Leu-Aib-Lys(HCl)-Ile-Leu-NH2 [SEQ. ID. No. 2]	–	at least 95%
1-octanoyl-Aib-Lys(HCl)-Leu-Aib-Lys(HCl)-Lys(HCl)-Leu-Aib-Lys(HCl)-Ile-Leu-NH2 [SEQ. ID. No. 4]	at least 95%	at least 95%
1-octanoyl-Aib-Lys(HCl)-Leu-Aib-Lys(HCl)-Lys(HCl)-Leu-Aib-Lys(HCl)-Ile-Lol [SEQ. ID. No. 3]	at least 95%	at least 95%
